{"sequences": {"note": "Protein sequences, listed by entry. Tags and fused reporters are not part of them.", "UniProt O94874": "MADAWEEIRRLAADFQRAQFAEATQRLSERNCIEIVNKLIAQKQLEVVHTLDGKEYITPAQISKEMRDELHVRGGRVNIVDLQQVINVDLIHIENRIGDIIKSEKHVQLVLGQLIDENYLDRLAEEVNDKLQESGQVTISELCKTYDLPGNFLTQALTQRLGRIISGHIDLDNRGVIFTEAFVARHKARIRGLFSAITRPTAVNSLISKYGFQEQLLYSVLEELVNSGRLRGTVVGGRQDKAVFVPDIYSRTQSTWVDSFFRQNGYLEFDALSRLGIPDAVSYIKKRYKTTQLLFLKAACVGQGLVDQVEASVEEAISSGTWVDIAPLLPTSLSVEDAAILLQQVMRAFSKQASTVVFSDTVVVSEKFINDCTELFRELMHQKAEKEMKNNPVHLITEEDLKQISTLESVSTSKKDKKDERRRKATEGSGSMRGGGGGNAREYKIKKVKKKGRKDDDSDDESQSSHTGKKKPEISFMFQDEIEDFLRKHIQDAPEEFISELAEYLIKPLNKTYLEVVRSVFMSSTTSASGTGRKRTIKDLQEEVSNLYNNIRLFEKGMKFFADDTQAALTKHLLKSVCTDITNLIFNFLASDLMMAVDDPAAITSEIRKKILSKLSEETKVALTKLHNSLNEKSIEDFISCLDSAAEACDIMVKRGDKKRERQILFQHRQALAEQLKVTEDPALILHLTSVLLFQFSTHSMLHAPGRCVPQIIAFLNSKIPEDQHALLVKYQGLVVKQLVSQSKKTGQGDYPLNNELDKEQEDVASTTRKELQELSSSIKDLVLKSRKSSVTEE", "UniProt Q05086": "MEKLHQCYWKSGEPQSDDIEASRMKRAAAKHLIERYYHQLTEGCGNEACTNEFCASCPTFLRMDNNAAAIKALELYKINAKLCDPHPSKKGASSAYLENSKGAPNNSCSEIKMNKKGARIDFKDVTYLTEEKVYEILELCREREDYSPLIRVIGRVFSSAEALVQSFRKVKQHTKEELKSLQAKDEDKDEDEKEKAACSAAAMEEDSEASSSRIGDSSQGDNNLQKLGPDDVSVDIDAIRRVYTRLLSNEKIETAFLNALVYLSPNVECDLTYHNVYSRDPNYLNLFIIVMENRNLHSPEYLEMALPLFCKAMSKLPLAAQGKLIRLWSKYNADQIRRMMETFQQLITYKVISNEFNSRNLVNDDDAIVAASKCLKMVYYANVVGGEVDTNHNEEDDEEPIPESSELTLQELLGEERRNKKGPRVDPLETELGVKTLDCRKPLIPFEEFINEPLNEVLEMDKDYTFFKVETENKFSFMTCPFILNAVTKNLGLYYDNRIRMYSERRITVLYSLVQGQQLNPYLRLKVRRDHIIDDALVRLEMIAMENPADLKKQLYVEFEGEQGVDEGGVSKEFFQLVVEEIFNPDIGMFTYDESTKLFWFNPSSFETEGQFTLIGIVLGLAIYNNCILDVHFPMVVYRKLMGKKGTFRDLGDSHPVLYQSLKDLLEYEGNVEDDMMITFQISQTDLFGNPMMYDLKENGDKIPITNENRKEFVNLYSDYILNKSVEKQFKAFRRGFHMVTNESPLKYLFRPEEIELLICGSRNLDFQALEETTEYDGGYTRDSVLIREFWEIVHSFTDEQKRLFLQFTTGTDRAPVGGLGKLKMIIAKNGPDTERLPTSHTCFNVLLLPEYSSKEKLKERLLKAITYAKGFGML", "UniProt Q8N339": "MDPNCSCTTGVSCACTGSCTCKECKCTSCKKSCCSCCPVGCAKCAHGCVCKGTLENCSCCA", "UniProt P05120": "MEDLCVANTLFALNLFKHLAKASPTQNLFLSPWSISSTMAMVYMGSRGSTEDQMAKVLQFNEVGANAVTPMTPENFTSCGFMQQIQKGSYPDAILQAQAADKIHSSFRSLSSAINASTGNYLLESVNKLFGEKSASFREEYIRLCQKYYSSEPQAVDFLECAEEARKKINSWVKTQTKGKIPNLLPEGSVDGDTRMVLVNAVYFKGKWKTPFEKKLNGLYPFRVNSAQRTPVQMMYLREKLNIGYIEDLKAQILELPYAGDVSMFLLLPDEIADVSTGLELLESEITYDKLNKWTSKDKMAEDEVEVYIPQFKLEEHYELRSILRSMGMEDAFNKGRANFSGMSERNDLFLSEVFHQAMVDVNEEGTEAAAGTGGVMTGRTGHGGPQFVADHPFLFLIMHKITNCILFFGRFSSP"}, "source": "paper PMC7352202", "key": {"[1]": {"target": "UFL1 (yeast two-hybrid bait, pDEST32-UFL1) (human) (UniProt O94874)", "assay": "two-hybrid; library screen in yeast strain Mav203; E3 ligase bait in pDEST32, prey library of over 20,000 human ORFs in pDEST22; positive colonies survived on SD-4 (deficient in Ura, His, Leu and Trp) plates and were blue with X-Gal; hits identified by sequencing"}, "[2]": {"target": "UBE3A (in HEK293T cells, co-immunoprecipitation) (human) (UniProt Q05086)", "assay": "co-IP; HEK293T cell lysate in Co-IP buffer (50 mM Tris-Cl pH 7.5, 150 mM NaCl, 5.0 mM EDTA, 1.0% NP-40); specific antibodies with protein G agarose beads or anti-Flag affinity gels; immunoblot"}, "[3]": {"target": "UBE3A (yeast two-hybrid bait, pDEST32-UBE3A) (human) (UniProt Q05086)", "assay": "two-hybrid; library screen in yeast strain Mav203; E3 ligase bait in pDEST32, prey library of over 20,000 human ORFs in pDEST22; positive colonies survived on SD-4 (deficient in Ura, His, Leu and Trp) plates and were blue with X-Gal; hits identified by sequencing"}}, "note": "No constants are given. Whether binding was seen depends on the method and setting. For part of these data: In cells and extracts the contact can be indirect. Some results given as binding are weak or reduced against the parent protein; the word gives no strength.", "data": [{"substance": "MT1M (yeast two-hybrid prey, pDEST22) (from UniProt Q8N339 1-61)", "values": [{"measurement": "binding", "setting": "[1]", "result": "binds"}]}, {"substance": "SERPINB2 (in HEK293T cells, co-immunoprecipitation) (from UniProt P05120 1-415)", "values": [{"measurement": "binding", "setting": "[2]", "result": "binds"}]}, {"substance": "SERPINB2 (yeast two-hybrid prey, pDEST22) (from UniProt P05120 1-415)", "values": [{"measurement": "binding", "setting": "[3]", "result": "binds"}]}]}
